Screening data, single-dose tests

By UniProt entry, the sequences of proteins in these tests, tags left out. Residues count along the entry.
UniProt I6X8D2, whole entry: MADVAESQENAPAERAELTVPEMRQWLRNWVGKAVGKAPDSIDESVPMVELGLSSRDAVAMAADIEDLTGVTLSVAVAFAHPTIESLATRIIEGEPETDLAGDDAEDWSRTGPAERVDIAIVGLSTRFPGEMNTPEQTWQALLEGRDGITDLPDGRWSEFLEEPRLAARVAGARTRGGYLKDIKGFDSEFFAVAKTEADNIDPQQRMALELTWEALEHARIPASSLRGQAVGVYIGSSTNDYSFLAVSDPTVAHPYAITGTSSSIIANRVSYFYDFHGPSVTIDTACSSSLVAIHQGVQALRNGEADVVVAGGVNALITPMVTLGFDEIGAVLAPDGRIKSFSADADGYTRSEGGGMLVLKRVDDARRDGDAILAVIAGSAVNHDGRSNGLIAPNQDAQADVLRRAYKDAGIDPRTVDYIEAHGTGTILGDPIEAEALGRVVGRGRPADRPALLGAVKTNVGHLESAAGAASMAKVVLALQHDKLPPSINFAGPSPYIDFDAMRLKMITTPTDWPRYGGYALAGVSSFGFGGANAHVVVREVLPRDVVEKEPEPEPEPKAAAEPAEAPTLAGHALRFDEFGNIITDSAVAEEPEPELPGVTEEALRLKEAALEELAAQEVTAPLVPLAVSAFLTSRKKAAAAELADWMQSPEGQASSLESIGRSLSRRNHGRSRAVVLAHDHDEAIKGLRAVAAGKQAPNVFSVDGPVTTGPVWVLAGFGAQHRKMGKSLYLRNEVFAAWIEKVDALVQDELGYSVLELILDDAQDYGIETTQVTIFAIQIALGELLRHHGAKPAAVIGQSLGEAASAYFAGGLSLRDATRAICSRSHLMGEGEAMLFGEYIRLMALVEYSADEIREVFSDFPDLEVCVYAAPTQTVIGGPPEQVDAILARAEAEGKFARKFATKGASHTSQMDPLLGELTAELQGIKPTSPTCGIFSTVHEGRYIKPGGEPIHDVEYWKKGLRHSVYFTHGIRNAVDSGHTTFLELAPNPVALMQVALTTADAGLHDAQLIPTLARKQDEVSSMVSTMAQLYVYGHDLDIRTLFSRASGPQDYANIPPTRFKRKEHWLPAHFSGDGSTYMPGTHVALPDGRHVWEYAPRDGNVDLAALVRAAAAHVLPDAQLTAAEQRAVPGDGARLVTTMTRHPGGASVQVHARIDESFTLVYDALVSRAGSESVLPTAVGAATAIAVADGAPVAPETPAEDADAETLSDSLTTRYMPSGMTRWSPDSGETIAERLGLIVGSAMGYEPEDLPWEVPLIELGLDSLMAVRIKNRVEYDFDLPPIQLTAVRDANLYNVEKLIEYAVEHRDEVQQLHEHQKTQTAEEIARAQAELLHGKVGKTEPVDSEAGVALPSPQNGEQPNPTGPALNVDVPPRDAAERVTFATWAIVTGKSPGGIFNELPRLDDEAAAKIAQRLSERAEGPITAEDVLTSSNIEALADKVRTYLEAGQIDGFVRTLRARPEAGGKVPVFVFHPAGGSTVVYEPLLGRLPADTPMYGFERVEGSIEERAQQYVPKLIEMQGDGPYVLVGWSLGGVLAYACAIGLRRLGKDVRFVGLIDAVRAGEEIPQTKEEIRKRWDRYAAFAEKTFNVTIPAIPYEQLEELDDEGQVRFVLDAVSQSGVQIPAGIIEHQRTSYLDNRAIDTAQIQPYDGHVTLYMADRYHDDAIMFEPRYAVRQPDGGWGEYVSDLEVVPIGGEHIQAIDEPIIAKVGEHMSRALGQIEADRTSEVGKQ
UniProt Q4DA54, 1-478: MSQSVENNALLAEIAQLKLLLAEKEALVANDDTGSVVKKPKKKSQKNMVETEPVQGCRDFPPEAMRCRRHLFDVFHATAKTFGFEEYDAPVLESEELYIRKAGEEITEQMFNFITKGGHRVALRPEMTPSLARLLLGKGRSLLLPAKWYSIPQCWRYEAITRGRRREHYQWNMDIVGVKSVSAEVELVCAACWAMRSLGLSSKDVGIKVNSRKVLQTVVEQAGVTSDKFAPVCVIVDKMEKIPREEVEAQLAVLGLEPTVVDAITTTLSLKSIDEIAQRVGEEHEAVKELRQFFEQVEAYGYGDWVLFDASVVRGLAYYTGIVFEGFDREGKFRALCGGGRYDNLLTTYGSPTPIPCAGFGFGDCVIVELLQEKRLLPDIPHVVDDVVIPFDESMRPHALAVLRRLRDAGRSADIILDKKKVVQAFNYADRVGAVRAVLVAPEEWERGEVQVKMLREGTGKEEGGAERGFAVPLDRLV

Measurements from “University of Dundee, Small-Polar-MMV Screening Library” (2021), ChEMBL document CHEMBL3988442.

Pks13 thioesterase: 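Enzyme assay of the thioesterase domain of polyketide synthase 13; the read-out is not stated. Target: Polyketide synthase Pks13, Mycobacterium tuberculosis (UniProt I6X8D2). Concentration: 30 µM. The record gives no direction; the compounds picked for IC50 retests had high values, so higher reads as stronger inhibition. Of about 67,000 compounds tested this way, about 300 (0.46%) reached 50% or more in at least one test.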
TcHisRS: 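Histidine-tRNA ligase, Trypanosoma cruzi CL Brener (UniProt Q4DA54). Enzyme assay of histidyl-tRNA synthetase; the read-out is not stated. Tested at 30 µM. The record gives no direction; compounds that gave an IC50 in retests scored well above the rest, so higher reads as stronger inhibition. Of about 69,000 compounds tested this way, about 31 (0.045%) reached 50% or more in at least one test.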

Results are given as percent effect.
The record does not define 0% and 100%; most values in the screen are far below 50% and negative numbers occur (in some assays of this library far below -100).
This is an unselected part of the compounds tested.

{"compound": "COc1ccccc1Oc1ncccc1CNC(=O)C(C)N1CCCC1", "stereo": "stereo not shown", "Pks13 thioesterase": -8.626, "TcHisRS": 0}
{"compound": "Cc1ccccc1CN1CCN(C(=O)c2cnc(C3CC3)[nH]c2=O)CC1", "Pks13 thioesterase": -16.1, "TcHisRS": -3.614}
{"compound": "Cc1cnn(CC2CCCN2Cc2nnc(Cc3ccccc3)o2)c1", "stereo": "stereo not shown", "Pks13 thioesterase": -17.15, "TcHisRS": 0.7519}
{"compound": "Cc1cccc(N2CCC3(CCCN(C(=O)Cc4cccnc4)C3)C2)n1", "stereo": "stereo not shown", "Pks13 thioesterase": 0.1151, "TcHisRS": 8.8}
{"compound": "O=C(CCC1CCCC1)N1CCCC(c2ncc3c(n2)CCNC3)C1", "stereo": "stereo not shown", "Pks13 thioesterase": -15.69, "TcHisRS": 16.48}
{"compound": "O=C(c1ccncc1)N1CCCN(Cc2nnc(C3CC3)o2)CC1", "Pks13 thioesterase": -37.19, "TcHisRS": 5.732}
{"compound": "CC[C@H]1N(CC2CCC2)CCC[C@]12CCC(=O)N2Cc1ccncc1", "Pks13 thioesterase": -8.778, "TcHisRS": 4.854}
{"compound": "COc1cc(CNc2ccccc2Cl)ccc1OCC(=O)O", "Pks13 thioesterase": -0.1342, "TcHisRS": -5.941}
{"compound": "CC1(c2ncc(CN3CCN(c4ncccn4)CC3)cn2)CCCCO1", "stereo": "stereo not shown", "Pks13 thioesterase": 13.34, "TcHisRS": 6.061}
{"compound": "COc1c(CNCc2cccnc2OC2CCCC2)c(C)nn1C", "Pks13 thioesterase": -35.76, "TcHisRS": 0.5405}
{"compound": "COC(=O)CC1CSCCN1C(=O)CCc1c(C)nn(C)c1C", "stereo": "stereo not shown", "Pks13 thioesterase": -14.48, "TcHisRS": 2.679}
{"compound": "O=C(O)CN1CCc2onc(C(c3ccccc3)c3ccccc3)c2C1", "Pks13 thioesterase": -10.05, "TcHisRS": 8.021}
{"compound": "Cc1ncccc1Oc1cncc(C2CCCN2Cc2cncn2C)n1", "stereo": "stereo not shown", "Pks13 thioesterase": -3.054, "TcHisRS": 7.605}
{"compound": "Cc1cc2c(cc1NC(=O)NC(C)(C)C)OCO2", "Pks13 thioesterase": -4.106, "TcHisRS": 2.591}
{"compound": "CCn1c(C)nc2cc(NC(=O)CC3CCN(S(C)(=O)=O)CC3)ccc21", "Pks13 thioesterase": -1.851, "TcHisRS": 6.061}
{"compound": "Cc1scc(C(=O)N2CCC3(CCCN(C)C3=O)C2)c1-c1ccccc1", "stereo": "stereo not shown", "Pks13 thioesterase": -14.59, "TcHisRS": 5.833}
{"compound": "Cc1ccsc1C(=O)N1C[C@@H]2CN(Cc3ccoc3)CCO[C@@H]2C1", "Pks13 thioesterase": -31.57, "TcHisRS": 3.867}
{"compound": "O=C(O)c1cc(-n2cc3c(n2)CCC3)cc(S(=O)(=O)NC2CCCC2)c1", "Pks13 thioesterase": 7.386, "TcHisRS": 7.143}
{"compound": "CCn1nccc1CNC(=O)C1CCCC1", "Pks13 thioesterase": 2.7, "TcHisRS": 6.695}
{"compound": "C[C@@H]1CN(c2cc(N3CCC(O)CC3)ncn2)C[C@@]1(O)C1CCC1", "Pks13 thioesterase": 14.22, "TcHisRS": -3.03}
{"compound": "Cc1occc1C(=O)NCCOc1ccc(C(F)(F)F)cn1", "Pks13 thioesterase": 10.65, "TcHisRS": -0.5291}
{"compound": "O=C1CN(C(=O)C2CN(c3cccc(F)c3)CCO2)CCN1", "stereo": "stereo not shown", "Pks13 thioesterase": 3.255, "TcHisRS": 9.091}
{"compound": "Cc1nc(COC(=O)c2cccc3c2OCCO3)cs1", "Pks13 thioesterase": 0.1885, "TcHisRS": 5.025}
{"compound": "CN(C)c1cc(C(=O)N2CCCC2)ccn1", "Pks13 thioesterase": -8.256, "TcHisRS": 2.639}
{"compound": "CN1Cc2ccccc2N(CC(O)C(F)(F)F)CCC1=O", "stereo": "stereo not shown", "Pks13 thioesterase": 8.7, "TcHisRS": 8.989}

3 of the entries, repeated:

compound,Pks13 thioesterase,TcHisRS
COC(=O)CC1CSCCN1C(=O)CCc1c(C)nn(C)c1C (stereo not shown),-14.48%,2.679%
O=C(CCC1CCCC1)N1CCCC(c2ncc3c(n2)CCNC3)C1 (stereo not shown),-15.69%,16.48%
C[C@@H]1CN(c2cc(N3CCC(O)CC3)ncn2)C[C@@]1(O)C1CCC1,14.22%,-3.03%